Reference: paper PMC12177072
Results are given in words; binding and its absence hold for the method and conditions named. Binding seen in cells or lysates may run through a third protein. Some binding calls cover weakened binding; strength is not graded here. Tags and fused reporters may be left off the sequences shown.

Sequences of proteins named here, by UniProt entry; tags and fusion partners are left off.
UniProt P49327: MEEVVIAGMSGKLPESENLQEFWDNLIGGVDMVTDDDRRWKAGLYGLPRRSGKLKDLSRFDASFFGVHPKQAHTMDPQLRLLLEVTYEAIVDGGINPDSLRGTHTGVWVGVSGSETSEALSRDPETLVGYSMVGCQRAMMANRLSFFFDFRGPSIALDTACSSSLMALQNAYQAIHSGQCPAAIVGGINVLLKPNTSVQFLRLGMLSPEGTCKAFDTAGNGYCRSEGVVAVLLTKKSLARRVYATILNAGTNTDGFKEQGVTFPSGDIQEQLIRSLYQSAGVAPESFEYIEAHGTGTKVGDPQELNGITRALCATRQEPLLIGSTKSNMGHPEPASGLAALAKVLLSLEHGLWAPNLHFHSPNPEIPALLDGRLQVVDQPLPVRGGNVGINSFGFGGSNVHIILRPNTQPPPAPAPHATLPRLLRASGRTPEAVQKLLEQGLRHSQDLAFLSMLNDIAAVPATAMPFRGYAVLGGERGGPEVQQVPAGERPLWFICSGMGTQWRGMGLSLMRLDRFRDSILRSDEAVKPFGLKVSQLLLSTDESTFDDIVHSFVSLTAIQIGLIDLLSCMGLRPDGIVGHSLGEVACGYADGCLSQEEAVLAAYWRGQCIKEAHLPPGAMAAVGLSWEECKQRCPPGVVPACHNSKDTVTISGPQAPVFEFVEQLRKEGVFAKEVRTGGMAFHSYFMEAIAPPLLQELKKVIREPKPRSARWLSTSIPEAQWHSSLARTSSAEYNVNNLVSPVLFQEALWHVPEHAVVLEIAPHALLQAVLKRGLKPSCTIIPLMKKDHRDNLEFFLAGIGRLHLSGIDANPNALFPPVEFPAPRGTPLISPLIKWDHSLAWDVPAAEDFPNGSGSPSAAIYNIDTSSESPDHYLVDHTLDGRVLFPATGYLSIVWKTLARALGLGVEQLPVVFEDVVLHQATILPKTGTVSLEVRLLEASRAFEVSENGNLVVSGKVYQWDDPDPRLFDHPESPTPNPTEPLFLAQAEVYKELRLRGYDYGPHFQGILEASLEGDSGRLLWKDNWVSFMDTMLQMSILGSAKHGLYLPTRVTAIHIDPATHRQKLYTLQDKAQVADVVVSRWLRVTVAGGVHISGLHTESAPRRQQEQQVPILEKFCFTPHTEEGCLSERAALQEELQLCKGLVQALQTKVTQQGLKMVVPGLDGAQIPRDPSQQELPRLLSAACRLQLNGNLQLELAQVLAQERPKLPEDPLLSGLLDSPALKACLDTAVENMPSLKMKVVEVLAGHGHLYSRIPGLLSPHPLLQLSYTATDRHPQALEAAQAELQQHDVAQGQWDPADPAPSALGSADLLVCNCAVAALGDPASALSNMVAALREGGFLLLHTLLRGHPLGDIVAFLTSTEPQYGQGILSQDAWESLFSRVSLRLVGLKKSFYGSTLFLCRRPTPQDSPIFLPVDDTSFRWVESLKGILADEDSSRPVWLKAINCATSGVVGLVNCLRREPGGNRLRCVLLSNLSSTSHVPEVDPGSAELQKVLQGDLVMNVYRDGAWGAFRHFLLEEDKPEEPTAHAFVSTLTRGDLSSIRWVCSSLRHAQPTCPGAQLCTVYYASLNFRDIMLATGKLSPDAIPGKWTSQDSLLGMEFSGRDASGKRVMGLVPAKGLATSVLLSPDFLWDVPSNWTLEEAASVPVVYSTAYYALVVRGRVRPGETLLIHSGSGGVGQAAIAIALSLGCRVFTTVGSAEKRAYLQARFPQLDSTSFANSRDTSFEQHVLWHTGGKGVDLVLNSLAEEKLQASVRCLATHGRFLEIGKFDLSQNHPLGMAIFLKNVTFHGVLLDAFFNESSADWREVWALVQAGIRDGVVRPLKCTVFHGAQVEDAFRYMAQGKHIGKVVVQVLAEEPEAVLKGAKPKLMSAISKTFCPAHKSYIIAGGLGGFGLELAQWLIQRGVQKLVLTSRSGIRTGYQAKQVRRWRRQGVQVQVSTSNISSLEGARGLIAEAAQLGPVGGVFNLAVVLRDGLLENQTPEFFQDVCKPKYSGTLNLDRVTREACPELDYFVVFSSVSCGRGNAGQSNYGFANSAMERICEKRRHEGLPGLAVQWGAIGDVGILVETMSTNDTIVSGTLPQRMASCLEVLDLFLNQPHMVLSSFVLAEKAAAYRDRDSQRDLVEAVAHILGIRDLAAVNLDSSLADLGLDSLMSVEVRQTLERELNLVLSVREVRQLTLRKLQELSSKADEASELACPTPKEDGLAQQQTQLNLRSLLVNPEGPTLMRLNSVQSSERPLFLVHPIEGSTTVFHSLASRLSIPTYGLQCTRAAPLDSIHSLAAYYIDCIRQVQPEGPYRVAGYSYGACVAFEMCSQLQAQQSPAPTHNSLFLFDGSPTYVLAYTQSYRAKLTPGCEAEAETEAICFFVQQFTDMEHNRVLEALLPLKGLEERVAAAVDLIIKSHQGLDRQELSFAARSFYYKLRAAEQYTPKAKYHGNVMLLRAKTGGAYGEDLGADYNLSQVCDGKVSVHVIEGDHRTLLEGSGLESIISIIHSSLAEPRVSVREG

T1: FLAG-PUMA (UniProt Q9BXH1)
T1 sequence: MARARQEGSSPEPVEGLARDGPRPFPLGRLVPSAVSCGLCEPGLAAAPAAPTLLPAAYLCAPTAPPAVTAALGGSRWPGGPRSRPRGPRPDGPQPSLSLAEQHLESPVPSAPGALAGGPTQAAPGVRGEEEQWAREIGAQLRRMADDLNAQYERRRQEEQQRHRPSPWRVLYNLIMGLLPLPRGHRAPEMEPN


Columns and labels:
FLAG-FASN = FLAG-FASN (UniProt P49327); assay: co-IP; exogenous, HEK293T cells 48 h after co-transfection of tagged plasmids; IP with HA or FLAG antibody, magnetic beads, Western blot; also in CN, shPUMA and PUMA-overexpressing HEK293T
FLAG-PUMA = molecular target: T1, FLAG-PUMA; assay: as above

binding (FLAG-FASN)	binding (FLAG-PUMA)	Binder
binds	binds	HA-USP15 (enzyme, UniProt Q9Y4E8 1-981) MAEGGAADLDTQRSDIATLLKTSLRKGDTWYLVDSRWFKQWKKYVGFDSWDKYQMGDQNVYPGPIDNSGLLKDGDAQSLKEHLIDELDYILLPTEGWNKLVSWYTLMEGQEPIARKVVEQGMFVKHCKVEVYLTELKLCENGNMNNVVTRRFSKADTIDTIEKEIRKIFSIPDEKETRLWNKYMSNTFEPLNKPDSTIQDAGLYQGQVLVIEQKNEDGTWPRGPSTPKSPGASNFSTLPKISPSSLSNNYNNMNNRNVKNSNYCLPSYTAYKNYDYSEPGRNNEQPGLCGLSNLGNTCFMNSAIQCLSNTPPLTEYFLNDKYQEELNFDNPLGMRGEIAKSYAELIKQMWSGKFSYVTPRAFKTQVGRFAPQFSGYQQQDCQELLAFLLDGLHEDLNRIRKKPYIQLKDADGRPDKVVAEEAWENHLKRNDSIIVDIFHGLFKSTLVCPECAKISVTFDPFCYLTLPLPMKKERTLEVYLVRMDPLTKPMQYKVVVPKIGNILDLCTALSALSGIPADKMIVTDIYNHRFHRIFAMDENLSSIMERDDIYVFEININRTEDTEHVIIPVCLREKFRHSSYTHHTGSSLFGQPFLMAVPRNNTEDKLYNLLLLRMCRYVKISTETEETEGSLHCCKDQNINGNGPNGIHEEGSPSEMETDEPDDESSQDQELPSENENSQSEDSVGGDNDSENGLCTEDTCKGQLTGHKKRLFTFQFNNLGNTDINYIKDDTRHIRFDDRQLRLDERSFLALDWDPDLKKRYFDENAAEDFEKHESVEYKPPKKPFVKLKDCIELFTTKEKLGAEDPWYCPNCKEHQQATKKLDLWSLPPVLVVHLKRFSYSRYMRDKLDTLVDFPINDLDMSEFLINPNAGPCRYNLIAVSNHYGGMGGGHYTAFAKNKDDGKWYYFDDSSVSTASEDQIVSKAAYVLFYQRQDTFSGTGFFPLDRETKGASAATGIPLESDEDSNDNDNDIENENCMHTN
binds	–	HA-PUMA (protein, UniProt Q9BXH1 1-193) MARARQEGSSPEPVEGLARDGPRPFPLGRLVPSAVSCGLCEPGLAAAPAAPTLLPAAYLCAPTAPPAVTAALGGSRWPGGPRSRPRGPRPDGPQPSLSLAEQHLESPVPSAPGALAGGPTQAAPGVRGEEEQWAREIGAQLRRMADDLNAQYERRRQEEQQRHRPSPWRVLYNLIMGLLPLPRGHRAPEMEPN
